These are yes or no findings as the source states them, for the method shown. Binding seen in cells or lysates may run through a third protein. Some results given as binding are weak or reduced against the parent protein; the word gives no strength. Tags and fused reporters may be left off the sequences shown.
Target: T1, CREB3 regulatory factor (CREBRF)-FLAG (human) (UniProt Q8IUR6)
T1 sequence: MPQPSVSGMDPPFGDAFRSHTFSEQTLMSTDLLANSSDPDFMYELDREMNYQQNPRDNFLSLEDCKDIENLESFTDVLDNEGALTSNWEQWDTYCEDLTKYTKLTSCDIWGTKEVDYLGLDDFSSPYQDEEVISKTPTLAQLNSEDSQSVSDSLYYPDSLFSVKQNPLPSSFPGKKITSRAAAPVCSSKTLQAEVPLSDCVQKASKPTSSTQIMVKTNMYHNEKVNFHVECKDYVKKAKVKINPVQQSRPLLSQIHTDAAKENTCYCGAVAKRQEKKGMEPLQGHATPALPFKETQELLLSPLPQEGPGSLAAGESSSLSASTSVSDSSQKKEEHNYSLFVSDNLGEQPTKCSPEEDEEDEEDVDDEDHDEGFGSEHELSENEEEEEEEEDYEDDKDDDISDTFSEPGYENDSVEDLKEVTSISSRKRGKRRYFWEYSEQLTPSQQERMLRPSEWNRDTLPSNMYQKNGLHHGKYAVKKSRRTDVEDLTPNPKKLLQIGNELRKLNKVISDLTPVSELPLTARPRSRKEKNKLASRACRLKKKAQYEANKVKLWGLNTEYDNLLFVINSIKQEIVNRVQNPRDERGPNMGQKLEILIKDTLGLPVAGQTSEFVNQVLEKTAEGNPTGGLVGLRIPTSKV
Assay: co-IP

Amino acid sequences for entries named in this document (tags omitted).
UniProt Q86UE8: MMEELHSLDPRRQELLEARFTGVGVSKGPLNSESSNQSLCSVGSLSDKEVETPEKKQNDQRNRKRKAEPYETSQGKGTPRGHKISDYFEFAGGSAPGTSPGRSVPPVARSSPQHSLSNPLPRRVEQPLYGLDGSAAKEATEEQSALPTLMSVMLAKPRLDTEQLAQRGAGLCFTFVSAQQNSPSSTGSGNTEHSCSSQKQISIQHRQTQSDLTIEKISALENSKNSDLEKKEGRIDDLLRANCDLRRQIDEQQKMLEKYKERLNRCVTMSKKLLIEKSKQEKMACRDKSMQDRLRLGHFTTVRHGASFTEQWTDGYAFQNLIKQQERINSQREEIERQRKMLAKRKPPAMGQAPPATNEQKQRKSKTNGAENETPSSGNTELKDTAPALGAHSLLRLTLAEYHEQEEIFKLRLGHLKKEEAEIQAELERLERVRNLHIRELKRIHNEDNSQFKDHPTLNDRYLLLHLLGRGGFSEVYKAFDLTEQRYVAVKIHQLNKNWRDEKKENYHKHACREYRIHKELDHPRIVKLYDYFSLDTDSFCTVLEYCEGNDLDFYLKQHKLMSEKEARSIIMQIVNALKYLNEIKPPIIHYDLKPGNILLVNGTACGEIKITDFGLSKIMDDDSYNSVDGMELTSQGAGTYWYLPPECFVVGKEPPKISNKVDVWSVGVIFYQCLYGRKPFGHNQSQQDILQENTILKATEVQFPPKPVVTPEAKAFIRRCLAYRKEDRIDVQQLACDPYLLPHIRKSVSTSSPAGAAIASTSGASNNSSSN

binding: binds
Substance: Tousled-like kinase 2 (TLK2) (from UniProt Q86UE8 1-772) (enzyme)

From article doi:10.1101/2022.07.17.500360
